No constants are given. Whether binding was seen depends on the method and setting. In cells and extracts the contact can be indirect.
How the values were obtained:
[1] = molecular target: T1, PKR, dsRNA-dependent eIF2α kinase (human (endogenous in Huh7.25.CD81)), P19525; assay: co-IP; immunoprecipitation of endogenous PKR from extracts (3.5 mg) of Huh7.25.CD81 cells infected with JFH1 (m.o.i = 0.2), alone or in presence of C16; lysis buffer 50 mM TRIS-HCl pH 7.5, 140 mM NaCl, 5% glycerol, 1% CHAPS; antibody at 4°C overnight, A/G-agarose beads; immunoblot (Odyssey); settings: remark: other sources report otherwise
T1 chain: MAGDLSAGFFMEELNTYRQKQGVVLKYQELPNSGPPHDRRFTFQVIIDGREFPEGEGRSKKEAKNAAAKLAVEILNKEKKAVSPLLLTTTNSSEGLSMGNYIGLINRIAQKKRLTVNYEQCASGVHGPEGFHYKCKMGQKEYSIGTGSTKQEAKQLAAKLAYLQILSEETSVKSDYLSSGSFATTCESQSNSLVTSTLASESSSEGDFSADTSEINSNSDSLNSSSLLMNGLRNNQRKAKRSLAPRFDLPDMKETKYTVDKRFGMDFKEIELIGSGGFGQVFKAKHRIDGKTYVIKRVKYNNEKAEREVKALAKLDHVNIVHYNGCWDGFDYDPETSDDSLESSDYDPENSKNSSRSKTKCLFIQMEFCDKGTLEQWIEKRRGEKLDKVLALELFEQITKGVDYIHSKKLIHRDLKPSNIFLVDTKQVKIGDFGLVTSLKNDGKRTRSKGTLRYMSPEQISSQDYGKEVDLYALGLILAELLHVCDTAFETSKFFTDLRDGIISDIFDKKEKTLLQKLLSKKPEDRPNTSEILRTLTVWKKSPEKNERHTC

[2] = molecular target: T1, PKR, dsRNA-dependent eIF2α kinase …; assay: co-IP; immunoprecipitation of endogenous PKR from extracts (3.5 mg) of JFH1-infected Huh7.25.CD81 cells at 1, 2, 4 and 6 hrs post-infection, with the RNAse inhibitor RNAsin (1000 U/ml) at all steps; immunoblot (Odyssey); settings: remark: other sources report otherwise

B1: RIG-I, CARD-containing DexD/H RNA helicase, O95786-1 1-925 (protein)
chain: MTTEQRRSLQAFQDYIRKTLDPTYILSYMAPWFREEEVQYIQAEKNNKGPMEAATLFLKFLLELQEEGWFRGFLDALDHAGYSGLYEAIESWDFKKIEKLEEYRLLLKRLQPEFKTRIIPTDIISDLSECLINQECEEILQICSTKGMMAGAEKLVECLLRSDKENWPKTLKLALEKERNKFSELWIVEKGIKDVETEDLEDKMETSDIQIFYQEDPECQNLSENSCPPSEVSDTNLYSPFKPRNYQLELALPAMKGKNTIICAPTGCGKTFVSLLICEHHLKKFPQGQKGKVVFFANQIPVYEQQKSVFSKYFERHGYRVTGISGATAENVPVEQIVENNDIIILTPQILVNNLKKGTIPSLSIFTLMIFDECHNTSKQHPYNMIMFNYLDQKLGGSSGPLPQVIGLTASVGVGDAKNTDEALDYICKLCASLDASVIATVKHNLEELEQVVYKPQKFFRKVESRISDKFKYIIAQLMRDTESLAKRICKDLENLSQIQNREFGTQKYEQWIVTVQKACMVFQMPDKDEESRICKALFLYTSHLRKYNDALIISEHARMKDALDYLKDFFSNVRAAGFDEIEQDLTQRFEEKLQELESVSRDPSNENPKLEDLCFILQEEYHLNPETITILFVKTRALVDALKNWIEGNPKLSFLKPGILTGRGKTNQNTGMTLPAQKCILDAFKASGDHNILIATSVADEGIDIAQCNLVILYEYVGNVIKMIQTRGRGRARGSKCFLLTSNAGVIEKEQINMYKEKMMNDSILRLQTWDEAVFREKILHIQTHEKFIRDSQEKPKPVPDKENKKLLCRKCKALACYTADVRVIEECHYTVLGDAFKECFVSRPHPKPKQFSSFEKRAKIFCARQNCSHDWGIHVKYKTFEIPVIKIESFVVEDIATGVQTLYSKWKDFHFEKIPFDPAEMSK
binding [1]: no binding | binding [2]: no binding

Source: article PMC3192838
